Measurements taken from publication PMC10340168.
No constants are given. Whether binding was seen depends on the method and setting. Binding seen in cells or lysates may run through a third protein. Some binding calls cover weakened binding; strength is not graded here.

Amino acid sequences for entries named in this document (tags omitted).
UniProt P16054: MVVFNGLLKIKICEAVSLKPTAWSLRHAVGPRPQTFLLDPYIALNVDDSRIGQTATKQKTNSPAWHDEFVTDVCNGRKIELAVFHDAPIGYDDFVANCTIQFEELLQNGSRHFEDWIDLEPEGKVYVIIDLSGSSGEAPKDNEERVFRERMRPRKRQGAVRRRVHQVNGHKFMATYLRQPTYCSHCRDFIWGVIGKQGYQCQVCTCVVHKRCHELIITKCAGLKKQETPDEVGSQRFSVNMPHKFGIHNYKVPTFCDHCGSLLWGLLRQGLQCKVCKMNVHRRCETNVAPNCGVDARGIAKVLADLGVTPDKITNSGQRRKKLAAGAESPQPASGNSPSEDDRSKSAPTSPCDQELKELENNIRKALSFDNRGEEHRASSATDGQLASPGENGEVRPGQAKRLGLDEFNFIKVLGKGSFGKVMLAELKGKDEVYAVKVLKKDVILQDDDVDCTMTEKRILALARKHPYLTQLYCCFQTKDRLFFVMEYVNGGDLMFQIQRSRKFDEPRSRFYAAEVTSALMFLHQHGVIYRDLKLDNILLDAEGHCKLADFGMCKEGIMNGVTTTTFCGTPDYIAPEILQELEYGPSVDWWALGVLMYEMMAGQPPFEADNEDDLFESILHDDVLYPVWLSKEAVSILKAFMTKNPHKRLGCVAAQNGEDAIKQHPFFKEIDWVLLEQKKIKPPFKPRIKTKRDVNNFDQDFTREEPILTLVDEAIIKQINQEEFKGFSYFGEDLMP

T1: Nrf2 (mouse (endogenous in C2C12)) (UniProt Q60795)
T1 sequence: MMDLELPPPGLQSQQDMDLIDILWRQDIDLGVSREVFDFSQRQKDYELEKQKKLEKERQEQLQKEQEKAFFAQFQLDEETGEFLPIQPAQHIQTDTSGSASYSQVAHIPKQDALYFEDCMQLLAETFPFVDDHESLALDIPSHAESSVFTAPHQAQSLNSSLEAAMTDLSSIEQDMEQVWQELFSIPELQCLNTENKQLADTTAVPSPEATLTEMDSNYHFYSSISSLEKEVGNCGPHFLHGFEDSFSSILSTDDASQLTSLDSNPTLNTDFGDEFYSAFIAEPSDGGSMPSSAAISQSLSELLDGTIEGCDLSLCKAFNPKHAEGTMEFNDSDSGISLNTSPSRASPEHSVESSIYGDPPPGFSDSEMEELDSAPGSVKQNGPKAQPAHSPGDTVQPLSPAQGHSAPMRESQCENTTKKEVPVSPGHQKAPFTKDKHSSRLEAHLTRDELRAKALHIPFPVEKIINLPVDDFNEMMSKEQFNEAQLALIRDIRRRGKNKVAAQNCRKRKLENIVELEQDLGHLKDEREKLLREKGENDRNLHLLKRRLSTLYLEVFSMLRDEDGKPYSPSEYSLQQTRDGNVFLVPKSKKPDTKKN


Assays:
[1] = molecular target: T1, Nrf2 (mouse (endogenous in C2C12)); assay: co-IP; 5 x 10^6 C2C12 cells lysed in RIPA buffer, pre-cleared, incubated with anti-PKCe or anti-Nrf2 antibody (5 ug/mL) overnight at 4 °C; Protein A/G PLUS-Agarose beads 1 h at 4 °C; SDS-PAGE and Western blot for PKCe and Nrf2; rabbit anti-human IgG as negative control
[2] = molecular target: Protein kinase C epsilon (mouse (endogenous in C2C12)) (UniProt P16054); assay: as above

binding [1]	binding [2]	Molecule
binds		Protein kinase C epsilon (from UniProt P16054 1-737) (enzyme)
	binds	Nrf2 (protein, UniProt Q60795 1-597) MMDLELPPPGLQSQQDMDLIDILWRQDIDLGVSREVFDFSQRQKDYELEKQKKLEKERQEQLQKEQEKAFFAQFQLDEETGEFLPIQPAQHIQTDTSGSASYSQVAHIPKQDALYFEDCMQLLAETFPFVDDHESLALDIPSHAESSVFTAPHQAQSLNSSLEAAMTDLSSIEQDMEQVWQELFSIPELQCLNTENKQLADTTAVPSPEATLTEMDSNYHFYSSISSLEKEVGNCGPHFLHGFEDSFSSILSTDDASQLTSLDSNPTLNTDFGDEFYSAFIAEPSDGGSMPSSAAISQSLSELLDGTIEGCDLSLCKAFNPKHAEGTMEFNDSDSGISLNTSPSRASPEHSVESSIYGDPPPGFSDSEMEELDSAPGSVKQNGPKAQPAHSPGDTVQPLSPAQGHSAPMRESQCENTTKKEVPVSPGHQKAPFTKDKHSSRLEAHLTRDELRAKALHIPFPVEKIINLPVDDFNEMMSKEQFNEAQLALIRDIRRRGKNKVAAQNCRKRKLENIVELEQDLGHLKDEREKLLREKGENDRNLHLLKRRLSTLYLEVFSMLRDEDGKPYSPSEYSLQQTRDGNVFLVPKSKKPDTKKN
